Results on one compound are retold here after US20220160798A1 (priority 2019, published 2022).

The subject of test [1] is CREB. Kind of test: Antibody fluorescent staining of brain hippocampus: CREB. The test is classed as in vivo, mice. Particulars: reduction vs control group.
In test [2] the test system is glial fibrillary acidic protein (GFAP). Kind of test: Antibody fluorescent staining of brain hippocampus: GFAP (astrocytes). The test is classed as in vivo, mice. Particulars: dentate gyrus (DG).

In the case of `COc1cc2c(cc1OC)C(=O)C(CC1CCN(Cc3ccccc3)CC1)C2` (centres unmarked) [donepezil], in test [1], the “activity of CREB (fluorescent staining)” value was “slight”. Further, the “GFAP-positive response / activated astrocytes” value in test [2] is recorded as “activated astrocytes were reduced”.
